# Patent publication US8853196B2, “Aminochromane, aminothiochromane and amino-1,2,3,4-tetrahydroquinoline derivatives, pharmaceutical compositions containing them, and their use in therapy” (AbbVie Deutschland GmbH & Co. KG, priority 2011, dated 2014)
# Sequences of proteins named here, by UniProt entry; tags and fusion partners are left off.
# UniProt P48067, whole entry: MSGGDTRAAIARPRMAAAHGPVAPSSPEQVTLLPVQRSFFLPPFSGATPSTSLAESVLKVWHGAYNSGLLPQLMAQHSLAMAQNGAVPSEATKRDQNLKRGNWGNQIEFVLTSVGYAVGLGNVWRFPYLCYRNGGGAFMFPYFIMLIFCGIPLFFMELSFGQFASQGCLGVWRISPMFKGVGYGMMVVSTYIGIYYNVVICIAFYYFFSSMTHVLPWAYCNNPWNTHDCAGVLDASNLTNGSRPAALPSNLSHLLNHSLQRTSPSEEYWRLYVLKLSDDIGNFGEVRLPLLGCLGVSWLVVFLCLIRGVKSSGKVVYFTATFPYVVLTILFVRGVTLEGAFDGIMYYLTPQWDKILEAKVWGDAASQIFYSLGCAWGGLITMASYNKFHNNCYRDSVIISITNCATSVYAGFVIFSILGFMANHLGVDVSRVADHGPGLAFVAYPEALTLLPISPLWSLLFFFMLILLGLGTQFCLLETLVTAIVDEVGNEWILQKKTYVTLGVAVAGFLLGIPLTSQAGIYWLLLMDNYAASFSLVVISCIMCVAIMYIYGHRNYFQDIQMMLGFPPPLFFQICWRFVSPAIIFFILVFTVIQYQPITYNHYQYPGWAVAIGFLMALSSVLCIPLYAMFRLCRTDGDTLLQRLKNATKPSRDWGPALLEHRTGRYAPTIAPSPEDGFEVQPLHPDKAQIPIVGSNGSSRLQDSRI
# The match of structure and compound is tentative.
# Target: human GlyT1c transporter (Homo sapiens, UniProt P48067)
# Assay: Radioligand binding assay using recombinant CHO cell membranes expressing human GlyT1
# Details: read-out: radioligand binding Kiapp, values given as upper bounds
smiles,measurement,value
Cn1cnc(S(=O)(=O)NCc2ccc3c(c2)[C@@H](Cc2ccccc2)[C@@H](N2CCC2)CO3)c1 (relative stereo),Ki,≤ 10 nM
